Measurements taken from publication doi:10.1101/2022.10.27.514025.
Results are given in words; binding and its absence hold for the method and conditions named. In cells and extracts the contact can be indirect. Here binding means that the protein was enriched with, or labelled near, the bait; the list need not be complete. For some of these results: Tags and fused reporters may be left off the sequences shown.

The chains behind the UniProt entries cited, without tags or fusion partners.
UniProt Q9NR30: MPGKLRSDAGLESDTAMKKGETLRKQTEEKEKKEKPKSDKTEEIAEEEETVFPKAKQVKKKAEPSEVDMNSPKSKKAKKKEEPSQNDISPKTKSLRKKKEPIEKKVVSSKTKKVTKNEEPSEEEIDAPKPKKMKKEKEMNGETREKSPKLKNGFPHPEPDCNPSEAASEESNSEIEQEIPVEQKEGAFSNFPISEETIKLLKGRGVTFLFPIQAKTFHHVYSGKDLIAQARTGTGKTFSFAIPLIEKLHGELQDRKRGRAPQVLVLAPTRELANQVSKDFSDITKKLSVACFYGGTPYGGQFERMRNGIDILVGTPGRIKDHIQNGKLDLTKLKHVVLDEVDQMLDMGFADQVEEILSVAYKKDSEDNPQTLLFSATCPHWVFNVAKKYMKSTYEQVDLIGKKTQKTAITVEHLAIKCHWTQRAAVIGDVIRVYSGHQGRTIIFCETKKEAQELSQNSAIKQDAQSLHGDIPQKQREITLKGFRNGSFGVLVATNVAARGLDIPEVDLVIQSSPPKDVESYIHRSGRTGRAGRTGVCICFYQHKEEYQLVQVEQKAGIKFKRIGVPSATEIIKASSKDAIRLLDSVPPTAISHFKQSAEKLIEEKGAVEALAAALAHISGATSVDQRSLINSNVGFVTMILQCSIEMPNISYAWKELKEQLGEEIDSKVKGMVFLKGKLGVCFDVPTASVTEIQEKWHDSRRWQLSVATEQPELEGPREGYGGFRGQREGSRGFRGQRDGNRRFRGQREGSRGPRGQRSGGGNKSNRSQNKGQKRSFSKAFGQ
UniProt P46013: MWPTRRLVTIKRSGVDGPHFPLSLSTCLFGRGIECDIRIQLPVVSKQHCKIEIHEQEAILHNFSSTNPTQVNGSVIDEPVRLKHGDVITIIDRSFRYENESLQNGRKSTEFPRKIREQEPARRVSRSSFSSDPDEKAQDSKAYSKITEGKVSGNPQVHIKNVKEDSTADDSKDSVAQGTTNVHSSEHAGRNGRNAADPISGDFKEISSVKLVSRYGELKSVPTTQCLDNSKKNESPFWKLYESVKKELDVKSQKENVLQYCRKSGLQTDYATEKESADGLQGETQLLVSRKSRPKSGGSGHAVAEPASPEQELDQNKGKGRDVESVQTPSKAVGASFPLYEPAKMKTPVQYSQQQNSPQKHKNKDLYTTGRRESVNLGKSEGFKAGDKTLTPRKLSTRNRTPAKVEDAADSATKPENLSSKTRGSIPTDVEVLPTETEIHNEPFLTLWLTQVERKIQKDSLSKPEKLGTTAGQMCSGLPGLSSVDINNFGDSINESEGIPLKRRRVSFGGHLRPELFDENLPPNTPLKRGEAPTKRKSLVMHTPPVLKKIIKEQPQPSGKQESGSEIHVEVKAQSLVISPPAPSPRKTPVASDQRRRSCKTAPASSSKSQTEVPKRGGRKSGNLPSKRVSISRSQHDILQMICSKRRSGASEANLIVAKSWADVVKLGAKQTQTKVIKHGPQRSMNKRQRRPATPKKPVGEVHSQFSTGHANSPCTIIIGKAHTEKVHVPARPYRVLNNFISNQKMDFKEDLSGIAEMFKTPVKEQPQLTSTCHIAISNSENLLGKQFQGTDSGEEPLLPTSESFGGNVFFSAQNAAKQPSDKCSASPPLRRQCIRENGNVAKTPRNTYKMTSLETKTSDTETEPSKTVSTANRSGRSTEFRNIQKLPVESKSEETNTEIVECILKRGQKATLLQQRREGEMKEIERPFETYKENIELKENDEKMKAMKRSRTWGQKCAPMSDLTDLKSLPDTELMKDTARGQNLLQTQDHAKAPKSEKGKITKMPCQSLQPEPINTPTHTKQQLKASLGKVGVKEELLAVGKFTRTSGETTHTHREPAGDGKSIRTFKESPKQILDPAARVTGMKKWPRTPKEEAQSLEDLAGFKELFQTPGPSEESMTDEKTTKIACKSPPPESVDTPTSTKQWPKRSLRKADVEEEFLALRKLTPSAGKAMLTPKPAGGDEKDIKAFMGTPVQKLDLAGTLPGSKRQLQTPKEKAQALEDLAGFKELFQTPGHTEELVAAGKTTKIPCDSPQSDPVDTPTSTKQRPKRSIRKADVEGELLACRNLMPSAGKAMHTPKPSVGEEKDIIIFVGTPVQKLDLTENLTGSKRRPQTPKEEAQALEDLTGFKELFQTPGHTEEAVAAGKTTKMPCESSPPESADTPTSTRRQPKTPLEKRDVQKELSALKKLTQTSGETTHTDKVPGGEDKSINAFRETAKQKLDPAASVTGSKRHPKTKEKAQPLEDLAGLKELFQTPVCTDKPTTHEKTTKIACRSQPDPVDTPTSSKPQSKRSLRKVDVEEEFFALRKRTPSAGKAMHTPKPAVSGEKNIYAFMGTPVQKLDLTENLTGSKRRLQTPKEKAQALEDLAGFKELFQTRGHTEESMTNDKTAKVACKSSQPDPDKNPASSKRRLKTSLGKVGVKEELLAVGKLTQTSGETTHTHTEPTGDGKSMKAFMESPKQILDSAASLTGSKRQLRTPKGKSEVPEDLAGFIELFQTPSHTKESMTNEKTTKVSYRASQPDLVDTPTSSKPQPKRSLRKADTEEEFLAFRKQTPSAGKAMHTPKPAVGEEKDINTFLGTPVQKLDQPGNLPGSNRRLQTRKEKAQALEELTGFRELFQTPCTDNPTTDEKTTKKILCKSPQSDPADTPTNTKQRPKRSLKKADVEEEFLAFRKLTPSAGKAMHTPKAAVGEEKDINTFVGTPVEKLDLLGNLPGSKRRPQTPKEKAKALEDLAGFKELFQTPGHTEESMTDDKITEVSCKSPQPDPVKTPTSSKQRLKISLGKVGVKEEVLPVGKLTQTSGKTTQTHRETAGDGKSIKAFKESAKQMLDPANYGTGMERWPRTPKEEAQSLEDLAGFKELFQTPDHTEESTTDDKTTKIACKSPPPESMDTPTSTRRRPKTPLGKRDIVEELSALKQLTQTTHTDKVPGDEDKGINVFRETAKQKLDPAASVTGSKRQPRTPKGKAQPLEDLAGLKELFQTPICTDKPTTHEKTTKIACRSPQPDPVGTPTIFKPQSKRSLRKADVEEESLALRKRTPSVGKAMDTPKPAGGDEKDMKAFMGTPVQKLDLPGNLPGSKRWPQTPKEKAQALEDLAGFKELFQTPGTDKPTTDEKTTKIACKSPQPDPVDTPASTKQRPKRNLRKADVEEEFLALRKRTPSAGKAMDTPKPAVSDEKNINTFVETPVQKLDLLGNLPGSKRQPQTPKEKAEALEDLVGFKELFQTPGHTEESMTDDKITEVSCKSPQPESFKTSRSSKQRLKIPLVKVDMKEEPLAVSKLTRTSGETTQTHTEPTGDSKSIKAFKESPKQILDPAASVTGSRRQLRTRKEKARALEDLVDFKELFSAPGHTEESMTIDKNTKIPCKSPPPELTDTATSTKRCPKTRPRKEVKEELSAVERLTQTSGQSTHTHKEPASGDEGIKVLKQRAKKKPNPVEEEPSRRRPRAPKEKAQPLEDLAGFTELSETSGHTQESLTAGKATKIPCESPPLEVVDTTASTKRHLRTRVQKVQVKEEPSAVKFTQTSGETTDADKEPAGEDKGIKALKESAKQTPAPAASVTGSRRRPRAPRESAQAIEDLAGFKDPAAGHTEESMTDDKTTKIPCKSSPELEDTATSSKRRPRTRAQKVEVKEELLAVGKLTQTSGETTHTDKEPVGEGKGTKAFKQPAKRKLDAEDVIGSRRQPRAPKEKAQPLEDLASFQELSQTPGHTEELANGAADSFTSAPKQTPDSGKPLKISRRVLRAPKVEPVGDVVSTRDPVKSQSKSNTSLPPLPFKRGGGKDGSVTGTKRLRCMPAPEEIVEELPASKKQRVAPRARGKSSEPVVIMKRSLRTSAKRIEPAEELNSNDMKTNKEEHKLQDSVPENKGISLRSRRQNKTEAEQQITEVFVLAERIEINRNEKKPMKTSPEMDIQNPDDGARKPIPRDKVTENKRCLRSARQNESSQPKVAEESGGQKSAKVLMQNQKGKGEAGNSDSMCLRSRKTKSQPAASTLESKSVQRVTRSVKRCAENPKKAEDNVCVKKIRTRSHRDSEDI
UniProt P06748: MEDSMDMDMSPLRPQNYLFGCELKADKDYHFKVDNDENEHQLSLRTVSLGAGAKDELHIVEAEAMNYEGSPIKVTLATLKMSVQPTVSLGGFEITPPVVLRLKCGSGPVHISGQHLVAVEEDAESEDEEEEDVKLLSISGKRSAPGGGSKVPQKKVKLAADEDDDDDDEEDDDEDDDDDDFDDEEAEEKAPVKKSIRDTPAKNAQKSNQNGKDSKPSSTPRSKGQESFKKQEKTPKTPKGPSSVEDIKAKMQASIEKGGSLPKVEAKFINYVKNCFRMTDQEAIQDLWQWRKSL

T1: ORC2 (human (endogenous in HEK293, K562 and HeLa)) (UniProt Q13416)
T1 sequence: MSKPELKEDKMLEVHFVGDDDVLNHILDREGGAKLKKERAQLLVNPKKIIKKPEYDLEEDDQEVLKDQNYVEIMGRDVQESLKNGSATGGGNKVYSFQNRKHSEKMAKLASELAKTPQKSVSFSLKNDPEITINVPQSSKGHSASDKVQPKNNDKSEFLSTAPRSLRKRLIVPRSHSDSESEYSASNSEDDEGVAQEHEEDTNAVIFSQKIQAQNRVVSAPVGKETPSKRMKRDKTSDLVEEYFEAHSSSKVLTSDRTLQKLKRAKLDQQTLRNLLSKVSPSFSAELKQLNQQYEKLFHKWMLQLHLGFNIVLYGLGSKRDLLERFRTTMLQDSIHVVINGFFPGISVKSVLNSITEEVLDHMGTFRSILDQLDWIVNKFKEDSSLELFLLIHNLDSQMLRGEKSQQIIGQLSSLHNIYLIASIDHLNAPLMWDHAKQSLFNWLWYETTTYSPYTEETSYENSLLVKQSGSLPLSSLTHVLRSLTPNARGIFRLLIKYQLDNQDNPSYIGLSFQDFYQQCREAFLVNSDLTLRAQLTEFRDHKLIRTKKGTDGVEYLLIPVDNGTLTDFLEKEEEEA

T2: GNL3-BirA-FLAG (human) (UniProt Q9BVP2)
T2 sequence: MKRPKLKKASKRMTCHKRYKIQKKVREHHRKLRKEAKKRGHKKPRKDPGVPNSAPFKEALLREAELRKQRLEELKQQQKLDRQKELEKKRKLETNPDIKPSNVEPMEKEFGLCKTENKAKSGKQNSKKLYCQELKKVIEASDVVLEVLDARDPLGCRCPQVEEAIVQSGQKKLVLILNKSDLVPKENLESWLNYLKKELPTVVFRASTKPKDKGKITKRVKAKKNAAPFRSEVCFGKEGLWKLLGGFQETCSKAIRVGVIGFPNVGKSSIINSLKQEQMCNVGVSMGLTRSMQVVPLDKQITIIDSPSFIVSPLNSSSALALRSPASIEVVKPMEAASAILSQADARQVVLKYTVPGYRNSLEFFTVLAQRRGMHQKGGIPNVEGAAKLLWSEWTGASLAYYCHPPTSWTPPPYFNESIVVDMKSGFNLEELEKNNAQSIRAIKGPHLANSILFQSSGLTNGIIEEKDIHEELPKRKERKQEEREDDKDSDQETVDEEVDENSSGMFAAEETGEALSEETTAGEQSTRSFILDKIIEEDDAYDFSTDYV

B1: GNL3/nucleostemin (protein, UniProt Q9BVP2 1-549)
chain: T2 sequence
B2: ORC2 (protein, UniProt Q13416 1-577)
chain: T1 sequence
B3: GNL3L (protein, UniProt Q9NVN8 1-582)
chain: MMKLRHKNKKPGEGSKGHKKISWPYPQPAKQNGKKATSKVPSAPHFVHPNDHANREAELKKKWVEEMREKQQAAREQERQKRRTIESYCQDVLRRQEEFEHKEEVLQELNMFPQLDDEATRKAYYKEFRKVVEYSDVILEVLDARDPLGCRCFQMEEAVLRAQGNKKLVLVLNKIDLVPKEVVEKWLDYLRNELPTVAFKASTQHQVKNLNRCSVPVDQASESLLKSKACFGAENLMRVLGNYCRLGEVRTHIRVGVVGLPNVGKSSLINSLKRSRACSVGAVPGITKFMQEVYLDKFIRLLDAPGIVPGPNSEVGTILRNCVHVQKLADPVTPVETILQRCNLEEISNYYGVSGFQTTEHFLTAVAHRLGKKKKGGLYSQEQAAKAVLADWVSGKISFYIPPPATHTLPTHLSAEIVKEMTEVFDIEDTEQANEDTMECLATGESDELLGDTDPLEMEIKLLHSPMTKIADAIENKTTVYKIGDLTGYCTNPNRHQMGWAKRNVDHRPKSNSMVDVCSVDRRSVLQRIMETDPLQQGQALASALKNKKKMQKRADKIASKLSDSMMSALDLSGNADDGVGD

target: T1, ORC2 (human (endogenous in HEK293, K562 and HeLa)); assay: affinity purification with mass spectrometry

| binding | Molecule |
| --- | --- |
| binds | B1 |

target: T2, GNL3-BirA-FLAG (human); assay: proximity labelling

| binding | Molecule |
| --- | --- |
| binds | DDX21 (from UniProt Q9NR30 1-783) |
| binds | Ki67 (from UniProt P46013 1-3256) |
| binds | NPM1 (from UniProt P06748 1-294) |
| binds | GNL2 (from UniProt Q13823 1-731) |
| binds | B2 |
| binds | B3 |
